Test results reported in the supplement of paper PMC12764529.
± gives the half width of the 95% confidence interval. The two proteases of the assay disagree for many of these sequences.

Legend:
[1] = folding stability dG unfold from chymotrypsin proteolysis; higher = more stable
Procedure, shortened: (§1)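 Bayesian fitting of sequencing counts gave K50 for each design. Unfolding free energy followed by setting this against a sequence-predicted unfolded-state K50 and a shared folded-state K50, either per protease or with trypsin and chymotrypsin combined. The designs, under 80 residues and lacking cysteine, were digested in a PA-tagged cDNA display format at 11 threefold-diluted protease concentrations and without protease, and only those with AlphaFold2 dimer inter-PAE above 15 were kept.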

[2] = folding stability dG unfold (combined trypsin and chymotrypsin); higher = more stable
Procedure, shortened: as §1

[3] = folding stability dG unfold from trypsin proteolysis; higher = more stable
Procedure, shortened: as §1

Row | Sequence | folding stability dG unfold [1] [kcal/mol] | folding stability dG unfold [2] [kcal/mol] | folding stability dG unfold [3] [kcal/mol]
1 | SAGGSASMSKTTTETSPDSETTTTTYYPNGTVTTTKTTTVGEGTTTTTTTTKVLFIPGPGVLVPEPSAGGSA [r15_746_JUSTAS] | 0.514 ± 0.062 | 0.259 ± 0.046 | -0.174 ± 0.045
2 | SAIIKIKTKGKEEIKILLKEIAKKLGFPELTPEEALKALKKVNIKILSIKKDPENPEIYYVEIEIKPPESAG [r14_678_TrMRF] | 4.33 ± 0.07 | 4.01 ± 0.11 | 2.31 ± 0.076
3 | SAGGLIEAIKEAIDQAPPGDEEVTIPIRFPNGTFVIEIRREKDKYKIEIEMQNPNGQKQEITITIEVSAGGS [r16_642_TrROS] | 1.69 ± 0.089 | 1.65 ± 0.12 | 1.43 ± 0.091
4 | SAGGSKKPKIEIEFDKKNKTIKIKINGKEFEFKIKKIEIEKIGDGYYKITIELEDGSKYEFIFKIKSAGGSA [r2_268_TrROS_Hall] | 5.38 ± 0.31 | 4.73 ± 0.51 | 3.06 ± 0.21
5 | SAGGSAGGSELYLKITIDVPPGATVEEIKEALKKLFPDVEVEVVEENGKLVIYVRVKSEEALKSAGGSAGGS [r20_175_TrROS_Hall] | 4.19 ± 0.07 | 3.76 ± 0.091 | 2 ± 0.058
6 | SAGGSAGGSSFSVEVIENPDSDVILRKIHFDNFTVIPLFDPSTGKIVSVVVQFPDGSWYTFPLSAGGSAGGS [r12_563_TrMRF] | 2.78 ± 0.053 | 2.51 ± 0.11 | 2.18 ± 0.1
7 | SLRDIAKEIAEKAGMDPEDVEINVETEPDPKNGKPRLRITVSIEHPNRKYMIKIDFQDGEIEEIMPLEDISA [r9_1219_TrROS] | 1.97 ± 0.089 | 1.74 ± 0.3 | 1.66 ± 0.099
8 | SAGGEISFNFRWPSLEEAIEFVNEIAQLFPGFDVNVEYNPGNGWFHVTIKPKPVPPPDPEEAEENKKSAGGS [r16_674_TrROS] | 4.66 ± 0.15 | 4.34 ± 0.14 | 1.28 ± 0.099
9 | SAGGSAGGSAKKYKVKIEIEKEKKKYKFEFEVSFENIQEIIDAIPKDYKVKITSIEPLEPKSAGGSAGGSAG [r3_195_TrMRF] | 4.35 ± 0.047 | 4.04 ± 0.16 | 1.62 ± 0.047
10 | SAGGSAGGSAGGKKKILVLVEVDGKLYLVEAEVEEKDGKLYIKAKVYRIDKKDPGKIEKVSAGGSAGGSAGG [r7_866_TrROS_Hall] | 4.28 ± 0.17 | 3.73 ± 0.41 | 1.78 ± 0.07
11 | SAGGSAGGSALAEALAKALGIPAEVEITSDIEPDRPTVFSLRVREPGGGEELELPVVLPPGASAGGSAGGSA [r18_313_TrMRF] | 3.27 ± 0.052 | 2.45 ± 0.18 | 0.819 ± 0.099
12 | SAGGSAGGSAGGPKIEVNEDGTVTITLEVDGKLVTKTVKVELEAPPVETVEFVKEGEEVSAGGSAGGSAGGS [r10_240_TrROS_Hall] | 1.21 ± 0.046 | 1.02 ± 0.077 | 0.822 ± 0.043
13 | SSLTLRLRLEFPLPGPLRVRVEVTLHLERDGDRLTLHLEARVRLDPVPPVPPPPAPPVITPEEASRLLAGSA [r9_965_TrMRF] | 4.22 ± 0.08 | 3.5 ± 0.25 | -0.465 ± 0.56
14 | SAGGTLKYKVTVTLSYPDKDGNLLSTGTYTFEVEVKPPKVIGVPADAEELAKELAEKTDTVVVPTDTGSAGG [r19_315_TrMRF] | 3.63 ± 0.11 | 3.13 ± 0.22 | 1.41 ± 0.12
15 | SAGGSAGGSETIEIELTTEDGRKVRMRIEKNPDGSVTIYVFDEDGKLIAKIDLKTNKIEVRKASAGGSAGGS [r20_159_TrROS_Hall] | 3.44 ± 0.12 | 2.83 ± 0.15 | 1.23 ± 0.075
16 | SMTVVIDIPPEVPVPGSGSVRPVPVEEVLKRVEEAMAKGKKVVVTGRDPKHPLVQEVAARLEELGVEVVGSA [r9_468_JUSTAS] | 0.71 ± 0.016 | 0.59 ± 0.054 | 0.342 ± 0.029
17 | SAGGSAGGMVVERKDMDPEEAVEDTKKRIKEETGWEVTEITVTEFPEEPRLVVTIKVKKPPEKSSAGGSAGG [r6_462_JUSTAS] | 0.71 ± 0.016 | 0.408 ± 0.098 | -0.287 ± 0.11
18 | SAGGSAGGELTVELEFTLPDGYRVTVRATYRFDPTTNEWTVTRVEVTIEPVPPLPPLDPRGGPDSAGGSAGG [r6_506_TrMRF] | 4.85 ± 0.07 | 4.51 ± 0.11 | 1.18 ± 0.027
19 | SAGGEVELKIKIEIRVELNEDGELKVEIKIEIELRPKPEPELTEEERLAEELRKKYPGLSKEELEALLSAGG [r13_136_TrROS_Hall] | 1.63 ± 0.13 | 2.32 ± 0.27 | 2.87 ± 0.32
20 | SAGGSAGGKITITVEKNKNGKLTVRIEVEVDGKTYEIEIEADSLEEALEAAKKLGLKVKKVEIVSAGGSAGG [r6_40_TrROS_Hall] | 3.69 ± 0.087 | 3.25 ± 0.19 | 1.61 ± 0.078
21 | SAGGSMSTKTLDNAPDDVGTLVTETTTTYDPVTNTTTVTTTTTLVDSAGNVLTPEPSTTTLAPPGSTSAGGS [r8_387_JUSTAS] | 1.14 ± 0.064 | 0.76 ± 0.07 | -1.21 ± 0.13

In a second layout: results already given.

| Row | Sequence | folding stability dG unfold [1] [kcal/mol] | folding stability dG unfold [2] [kcal/mol] | folding stability dG unfold [3] [kcal/mol] |
| --- | --- | --- | --- | --- |
| 4 | SAGGSKKPKIEIEFDKKNKTIKIKINGKEFEFKIKKIEIEKIGDGYYKITIELEDGSKYEFIFKIKSAGGSA [r2_268_TrROS_Hall] | 5.38 ± 0.31 | 4.73 ± 0.51 | 3.06 ± 0.21 |
| 5 | SAGGSAGGSELYLKITIDVPPGATVEEIKEALKKLFPDVEVEVVEENGKLVIYVRVKSEEALKSAGGSAGGS [r20_175_TrROS_Hall] | 4.19 ± 0.07 | 3.76 ± 0.091 | 2 ± 0.058 |
| 6 | SAGGSAGGSSFSVEVIENPDSDVILRKIHFDNFTVIPLFDPSTGKIVSVVVQFPDGSWYTFPLSAGGSAGGS [r12_563_TrMRF] | 2.78 ± 0.053 | 2.51 ± 0.11 | 2.18 ± 0.1 |
| 7 | SLRDIAKEIAEKAGMDPEDVEINVETEPDPKNGKPRLRITVSIEHPNRKYMIKIDFQDGEIEEIMPLEDISA [r9_1219_TrROS] | 1.97 ± 0.089 | 1.74 ± 0.3 | 1.66 ± 0.099 |
